This is an account of results in article PMC6379680, “The Leishmania PABP1–eIF4E4 interface: a novel 5′–3′ interaction architecture for trans-spliced mRNAs” (Nucleic Acids Research, 2018).

These are yes or no findings as the source states them, for the method shown. Some results given as binding are weak or reduced against the parent protein; the word gives no strength.

The experiment addresses PABP1(J), the PABC domain of Leishmania major PABP1 prepared as segment J (Leishmania major) (UniProt E9AFX7). The experiment in a line: crystal structure; vapour diffusion at 22°C; PABP1(J) alone and PABP1(J) co-crystallised with the eIF4E4 PAM2 peptide; about 2 Å; both purified.

B1: PABP1(J), the PABC domain of Leishmania major PABP1 prepared as segment J (domain or fragment, UniProt E9AFX7 482-560)
chain: LPPITPQELESMSPQEQRAALGDRLFLKVYEIAPELAPKITGMFLEMKPKEAYELLNDQKRLEERVTEALCVLKAHQTA
Take B1: the binding entry is “binds”.
